Assay results as given in publication PMC3365016.

Amino acid sequences for entries named in this document (tags omitted).
UniProt P09405: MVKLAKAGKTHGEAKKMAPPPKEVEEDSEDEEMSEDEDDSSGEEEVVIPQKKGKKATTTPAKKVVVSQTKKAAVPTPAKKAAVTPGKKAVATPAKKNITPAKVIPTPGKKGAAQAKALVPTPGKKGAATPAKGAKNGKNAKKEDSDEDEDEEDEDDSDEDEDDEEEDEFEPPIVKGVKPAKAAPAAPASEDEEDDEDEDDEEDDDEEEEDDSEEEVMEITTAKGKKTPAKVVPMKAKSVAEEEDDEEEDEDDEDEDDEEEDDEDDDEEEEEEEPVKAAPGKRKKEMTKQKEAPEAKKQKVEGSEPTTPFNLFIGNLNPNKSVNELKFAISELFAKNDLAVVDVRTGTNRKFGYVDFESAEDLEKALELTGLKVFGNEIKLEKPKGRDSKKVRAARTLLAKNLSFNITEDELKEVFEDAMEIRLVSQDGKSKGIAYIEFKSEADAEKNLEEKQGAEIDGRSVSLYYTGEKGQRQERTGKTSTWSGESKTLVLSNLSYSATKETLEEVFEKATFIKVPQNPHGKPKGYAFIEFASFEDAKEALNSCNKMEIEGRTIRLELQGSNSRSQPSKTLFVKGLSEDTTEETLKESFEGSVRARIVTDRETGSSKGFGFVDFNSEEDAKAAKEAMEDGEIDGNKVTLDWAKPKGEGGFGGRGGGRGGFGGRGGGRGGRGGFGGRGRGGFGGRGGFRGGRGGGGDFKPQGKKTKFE

Target: T1, V5-tagged G0S2 (G0/G1 switch gene 2), murine, full length (mouse) (UniProt Q61585)
T1 sequence: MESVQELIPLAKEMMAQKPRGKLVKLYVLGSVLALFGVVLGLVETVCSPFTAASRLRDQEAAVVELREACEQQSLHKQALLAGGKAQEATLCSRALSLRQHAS
Test: affinity purification with mass spectrometry; anti-V5 immunoprecipitation (Protein G-sepharose) from lysates of EL4 cells transduced with V5-tagged G0S2 or empty retrovirus; 150 mM NaCl, 50 mM Tris pH 8, 1% Triton X-100; Coomassie-stained bands cut out, trypsin, peptide mass fingerprinting

nucleolin, endogenous (mouse cells) (from UniProt P09405 1-707)
binding: binds

No constants are given. Whether binding was seen depends on the method and setting. In cells and extracts the contact can be indirect. A yes stands for co-enrichment or nearness to the bait. Other partners may have been found. Sequences can lack the tags named with a protein.
